# Measured values reported in article PMC12195615, “In Vitro and In Silico Assessments of Curcuminoids and Turmerones from Curcuma longa as Novel Inhibitors of Leishmania infantum Arginase” (Pharmaceuticals, 2025).
# System: intracellular L. infantum amastigotes
# Assay: Inhibition of intracellular amastigotes in infected RAW 264.7 macrophages
# Assay type: cell-based, Leishmania infantum
# Details: CC50 RAW 264.7 / IC50 amastigotes
# Description: After adhesion, the cells were incubated for 24 h in the presence of L. infantum promastigotes at a ratio of 10 parasites per macrophage at 35 °C in a 5% CO2 atmosphere. After the interaction period, the wells were washed with PBS to remove non-internalized promastigotes, and the infected macrophages were incubated for 24 h under the same conditions. […] Untreated infected macrophages served as a positive control for amastigote viability. After 48 h of treatment, the supernatant was collected, and the coverslips were stained with Panoptic. […] The IC50 was then calculated using dose–response curve regression analysis.
row,Structure (SMILES),IS (intracellular L. infantum amastigotes)
1,"O.O.O.O=C([O-])C(O)C(O)C(=O)[O-].O=C([O-])C(O)C(O)C(=O)[O-].[K+].[K+].[Sb].[Sb] (centres unmarked) [PAT, potassium antimony(III) tartrate hydrate, reference compound]",1.63
2,"COc1cc(/C=C/C(=O)CC(=O)/C=C/c2ccc(O)c(OC)c2)ccc1O [compound 1, curcumin]",5.13
